Test results taken from the supplement of paper PMC10849652.
Some of the results follow.

Protein sequences, listed by entry. Tags and fused reporters are not part of them. Lines headed by an entry give the natural chain unless they say otherwise; changes in a name come on top.
UniProt Q9H8W4: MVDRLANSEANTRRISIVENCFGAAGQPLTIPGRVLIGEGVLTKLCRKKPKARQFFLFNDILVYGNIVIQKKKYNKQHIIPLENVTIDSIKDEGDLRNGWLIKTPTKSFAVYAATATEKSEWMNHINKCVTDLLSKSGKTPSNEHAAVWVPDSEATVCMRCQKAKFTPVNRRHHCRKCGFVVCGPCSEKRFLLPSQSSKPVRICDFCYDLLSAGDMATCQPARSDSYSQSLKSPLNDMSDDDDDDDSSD
UniProt Q15063: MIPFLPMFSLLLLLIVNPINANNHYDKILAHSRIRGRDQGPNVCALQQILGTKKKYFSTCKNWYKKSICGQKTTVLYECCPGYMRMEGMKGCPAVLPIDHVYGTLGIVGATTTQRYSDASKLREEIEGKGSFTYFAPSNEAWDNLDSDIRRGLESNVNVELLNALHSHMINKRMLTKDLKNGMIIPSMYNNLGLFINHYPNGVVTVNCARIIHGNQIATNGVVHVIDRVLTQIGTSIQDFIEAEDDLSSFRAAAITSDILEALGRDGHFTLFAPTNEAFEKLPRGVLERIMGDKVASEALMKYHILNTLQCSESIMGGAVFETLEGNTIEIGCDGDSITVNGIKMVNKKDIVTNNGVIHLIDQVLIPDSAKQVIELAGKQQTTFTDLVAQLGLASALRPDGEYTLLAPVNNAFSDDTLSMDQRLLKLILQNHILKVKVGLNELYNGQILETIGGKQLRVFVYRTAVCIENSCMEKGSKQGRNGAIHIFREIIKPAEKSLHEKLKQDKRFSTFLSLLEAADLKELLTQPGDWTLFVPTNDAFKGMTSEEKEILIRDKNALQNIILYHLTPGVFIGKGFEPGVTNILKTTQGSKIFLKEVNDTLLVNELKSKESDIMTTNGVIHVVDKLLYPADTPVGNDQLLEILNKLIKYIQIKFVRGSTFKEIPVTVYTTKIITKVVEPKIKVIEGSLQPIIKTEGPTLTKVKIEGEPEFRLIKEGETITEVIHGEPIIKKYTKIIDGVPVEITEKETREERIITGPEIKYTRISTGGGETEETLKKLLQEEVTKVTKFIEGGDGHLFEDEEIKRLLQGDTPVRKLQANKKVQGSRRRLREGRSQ
UniProt Q9BY77: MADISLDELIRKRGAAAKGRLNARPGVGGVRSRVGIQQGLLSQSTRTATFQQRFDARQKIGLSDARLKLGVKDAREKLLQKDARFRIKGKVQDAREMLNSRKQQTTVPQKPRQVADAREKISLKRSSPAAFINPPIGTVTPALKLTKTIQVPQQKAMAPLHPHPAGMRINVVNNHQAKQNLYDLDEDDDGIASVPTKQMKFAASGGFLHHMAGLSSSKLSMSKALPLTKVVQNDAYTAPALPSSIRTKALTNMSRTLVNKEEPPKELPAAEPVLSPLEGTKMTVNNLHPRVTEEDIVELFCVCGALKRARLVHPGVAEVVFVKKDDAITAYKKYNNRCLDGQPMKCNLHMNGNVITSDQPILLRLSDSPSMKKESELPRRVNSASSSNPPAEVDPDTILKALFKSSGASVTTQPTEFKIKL
UniProt Q9NVU0: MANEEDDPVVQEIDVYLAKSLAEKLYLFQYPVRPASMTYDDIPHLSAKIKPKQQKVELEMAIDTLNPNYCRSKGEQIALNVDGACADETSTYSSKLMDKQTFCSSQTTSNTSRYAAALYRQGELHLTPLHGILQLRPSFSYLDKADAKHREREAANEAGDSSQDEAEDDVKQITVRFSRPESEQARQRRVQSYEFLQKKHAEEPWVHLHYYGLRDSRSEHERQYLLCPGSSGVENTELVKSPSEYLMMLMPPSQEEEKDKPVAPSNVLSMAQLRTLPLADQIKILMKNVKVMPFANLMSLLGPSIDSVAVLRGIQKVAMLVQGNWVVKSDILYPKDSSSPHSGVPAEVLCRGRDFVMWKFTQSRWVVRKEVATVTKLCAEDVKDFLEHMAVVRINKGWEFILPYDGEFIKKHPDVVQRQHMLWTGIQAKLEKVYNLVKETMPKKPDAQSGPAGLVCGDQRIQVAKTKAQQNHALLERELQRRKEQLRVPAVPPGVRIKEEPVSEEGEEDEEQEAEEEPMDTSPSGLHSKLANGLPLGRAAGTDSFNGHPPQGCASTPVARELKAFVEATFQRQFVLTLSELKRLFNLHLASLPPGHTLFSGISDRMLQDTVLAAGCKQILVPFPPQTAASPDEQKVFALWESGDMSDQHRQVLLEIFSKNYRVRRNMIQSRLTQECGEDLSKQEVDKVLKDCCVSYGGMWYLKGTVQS
UniProt Q9NRF9: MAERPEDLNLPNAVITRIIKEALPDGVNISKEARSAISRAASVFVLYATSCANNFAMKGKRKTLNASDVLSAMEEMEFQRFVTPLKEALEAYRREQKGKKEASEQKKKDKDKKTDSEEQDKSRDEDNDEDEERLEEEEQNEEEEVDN
UniProt Q04941: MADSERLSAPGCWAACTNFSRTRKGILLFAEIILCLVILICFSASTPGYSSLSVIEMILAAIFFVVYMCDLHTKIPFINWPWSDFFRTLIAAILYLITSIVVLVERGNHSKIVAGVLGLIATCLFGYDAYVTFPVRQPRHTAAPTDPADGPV
UniProt Q9NQ55: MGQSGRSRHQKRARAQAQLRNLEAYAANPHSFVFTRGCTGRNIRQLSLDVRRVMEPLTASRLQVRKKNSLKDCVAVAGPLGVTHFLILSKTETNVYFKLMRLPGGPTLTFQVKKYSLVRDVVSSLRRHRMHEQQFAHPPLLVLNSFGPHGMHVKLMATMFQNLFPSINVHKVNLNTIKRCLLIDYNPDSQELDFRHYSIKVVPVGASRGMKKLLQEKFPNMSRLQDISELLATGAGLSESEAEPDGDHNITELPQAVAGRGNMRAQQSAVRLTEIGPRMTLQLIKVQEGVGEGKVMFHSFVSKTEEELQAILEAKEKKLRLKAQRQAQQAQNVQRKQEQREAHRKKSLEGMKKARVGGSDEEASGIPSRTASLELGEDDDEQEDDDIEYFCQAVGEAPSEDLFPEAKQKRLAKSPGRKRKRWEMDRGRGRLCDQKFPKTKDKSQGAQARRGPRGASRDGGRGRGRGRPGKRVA
UniProt O43660: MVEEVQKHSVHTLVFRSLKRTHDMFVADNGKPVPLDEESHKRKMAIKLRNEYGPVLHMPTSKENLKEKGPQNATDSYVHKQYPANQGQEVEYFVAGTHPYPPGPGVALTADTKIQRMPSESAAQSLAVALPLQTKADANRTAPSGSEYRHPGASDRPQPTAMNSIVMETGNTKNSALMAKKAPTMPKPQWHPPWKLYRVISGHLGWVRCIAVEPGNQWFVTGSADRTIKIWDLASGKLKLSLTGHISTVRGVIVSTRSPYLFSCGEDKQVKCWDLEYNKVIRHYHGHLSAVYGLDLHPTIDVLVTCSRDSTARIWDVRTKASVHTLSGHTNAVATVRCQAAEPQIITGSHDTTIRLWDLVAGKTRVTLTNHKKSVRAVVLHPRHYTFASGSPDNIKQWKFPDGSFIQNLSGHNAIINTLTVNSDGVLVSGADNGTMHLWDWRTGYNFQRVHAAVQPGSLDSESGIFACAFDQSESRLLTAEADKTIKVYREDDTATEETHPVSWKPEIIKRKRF
UniProt Q15181: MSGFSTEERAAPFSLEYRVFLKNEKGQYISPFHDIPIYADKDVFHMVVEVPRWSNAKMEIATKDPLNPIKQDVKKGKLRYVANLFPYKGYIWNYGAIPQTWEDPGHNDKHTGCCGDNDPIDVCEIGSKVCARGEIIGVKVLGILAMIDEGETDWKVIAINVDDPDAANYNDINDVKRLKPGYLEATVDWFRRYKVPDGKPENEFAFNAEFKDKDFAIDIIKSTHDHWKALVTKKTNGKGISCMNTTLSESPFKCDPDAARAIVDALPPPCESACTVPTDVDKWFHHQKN
UniProt Q9H2U2: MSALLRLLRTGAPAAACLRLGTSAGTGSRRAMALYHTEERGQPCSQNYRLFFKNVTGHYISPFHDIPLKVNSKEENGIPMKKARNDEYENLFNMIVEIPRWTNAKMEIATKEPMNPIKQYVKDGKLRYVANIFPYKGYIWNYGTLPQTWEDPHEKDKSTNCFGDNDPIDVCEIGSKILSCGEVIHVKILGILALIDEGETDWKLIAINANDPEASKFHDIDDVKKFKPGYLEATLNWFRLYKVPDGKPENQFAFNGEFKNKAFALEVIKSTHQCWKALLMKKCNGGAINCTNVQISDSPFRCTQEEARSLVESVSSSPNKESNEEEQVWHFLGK
UniProt O75334: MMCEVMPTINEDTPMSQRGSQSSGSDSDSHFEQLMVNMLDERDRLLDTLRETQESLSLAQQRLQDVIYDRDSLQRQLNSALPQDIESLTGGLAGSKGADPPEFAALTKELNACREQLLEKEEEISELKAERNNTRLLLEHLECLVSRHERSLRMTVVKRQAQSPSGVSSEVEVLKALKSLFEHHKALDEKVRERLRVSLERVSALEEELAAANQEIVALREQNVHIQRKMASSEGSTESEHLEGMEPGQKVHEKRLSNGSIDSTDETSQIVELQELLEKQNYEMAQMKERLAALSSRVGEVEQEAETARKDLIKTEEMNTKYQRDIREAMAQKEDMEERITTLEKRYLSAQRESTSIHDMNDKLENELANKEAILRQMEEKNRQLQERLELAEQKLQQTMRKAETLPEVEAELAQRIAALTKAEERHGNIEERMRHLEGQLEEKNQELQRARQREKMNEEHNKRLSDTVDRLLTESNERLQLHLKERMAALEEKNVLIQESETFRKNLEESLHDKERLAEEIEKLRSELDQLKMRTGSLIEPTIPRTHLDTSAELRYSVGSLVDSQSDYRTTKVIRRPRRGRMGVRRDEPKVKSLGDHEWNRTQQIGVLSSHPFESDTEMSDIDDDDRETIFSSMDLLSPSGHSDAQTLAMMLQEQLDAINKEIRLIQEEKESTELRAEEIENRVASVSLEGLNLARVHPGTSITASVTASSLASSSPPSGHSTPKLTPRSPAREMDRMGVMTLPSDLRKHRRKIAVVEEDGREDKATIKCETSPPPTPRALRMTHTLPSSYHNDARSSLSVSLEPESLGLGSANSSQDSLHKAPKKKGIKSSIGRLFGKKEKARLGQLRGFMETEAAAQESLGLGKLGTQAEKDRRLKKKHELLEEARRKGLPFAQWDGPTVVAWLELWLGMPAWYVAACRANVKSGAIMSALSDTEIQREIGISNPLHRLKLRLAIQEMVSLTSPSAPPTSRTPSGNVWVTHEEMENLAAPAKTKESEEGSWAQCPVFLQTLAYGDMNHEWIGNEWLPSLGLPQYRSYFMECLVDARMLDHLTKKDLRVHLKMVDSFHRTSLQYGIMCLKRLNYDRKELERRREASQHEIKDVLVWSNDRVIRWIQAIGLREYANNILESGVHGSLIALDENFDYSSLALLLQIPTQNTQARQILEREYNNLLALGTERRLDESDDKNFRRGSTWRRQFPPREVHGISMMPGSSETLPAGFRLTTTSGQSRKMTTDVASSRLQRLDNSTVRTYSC
UniProt Q969H6: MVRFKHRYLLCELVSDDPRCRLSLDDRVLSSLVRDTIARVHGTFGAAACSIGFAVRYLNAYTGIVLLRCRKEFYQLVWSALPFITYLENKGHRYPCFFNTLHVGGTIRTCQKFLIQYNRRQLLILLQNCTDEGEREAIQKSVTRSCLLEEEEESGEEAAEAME
UniProt P23284: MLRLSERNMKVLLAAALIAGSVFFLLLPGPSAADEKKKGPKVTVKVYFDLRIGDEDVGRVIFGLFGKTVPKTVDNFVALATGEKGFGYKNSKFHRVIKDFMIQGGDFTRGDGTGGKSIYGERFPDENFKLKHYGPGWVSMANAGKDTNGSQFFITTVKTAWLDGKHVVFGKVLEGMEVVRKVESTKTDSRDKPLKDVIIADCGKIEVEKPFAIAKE
UniProt O15318: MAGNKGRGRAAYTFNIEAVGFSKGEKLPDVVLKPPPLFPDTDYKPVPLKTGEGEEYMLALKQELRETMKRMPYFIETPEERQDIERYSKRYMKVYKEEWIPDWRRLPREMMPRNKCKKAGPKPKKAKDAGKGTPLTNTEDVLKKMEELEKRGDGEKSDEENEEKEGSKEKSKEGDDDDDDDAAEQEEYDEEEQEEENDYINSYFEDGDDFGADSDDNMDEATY
UniProt Q9BUI4: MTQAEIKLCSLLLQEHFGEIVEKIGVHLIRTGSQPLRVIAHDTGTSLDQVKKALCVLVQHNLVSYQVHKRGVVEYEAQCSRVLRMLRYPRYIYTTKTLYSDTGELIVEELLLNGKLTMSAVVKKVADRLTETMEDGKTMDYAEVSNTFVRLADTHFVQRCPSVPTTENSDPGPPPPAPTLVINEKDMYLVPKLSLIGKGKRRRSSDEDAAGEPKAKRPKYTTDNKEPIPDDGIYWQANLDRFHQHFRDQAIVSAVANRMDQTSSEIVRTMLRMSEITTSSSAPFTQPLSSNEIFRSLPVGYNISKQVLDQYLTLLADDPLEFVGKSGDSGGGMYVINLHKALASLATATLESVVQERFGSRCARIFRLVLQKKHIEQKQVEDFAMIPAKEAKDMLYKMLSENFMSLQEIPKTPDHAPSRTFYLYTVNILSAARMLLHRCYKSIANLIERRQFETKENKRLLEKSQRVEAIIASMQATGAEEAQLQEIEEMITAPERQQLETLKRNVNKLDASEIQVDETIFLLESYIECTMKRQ
UniProt Q13794: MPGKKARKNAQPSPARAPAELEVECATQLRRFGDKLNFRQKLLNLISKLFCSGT

Legend:
Experiment in all cases: log2 fold change, soluble protein after heating vs DMSO (PISA); higher = thermal stabilisation; K562 cells, 10 uM, 30 min; active = over 0.2 and 3.5 SD of the protein, either way, in both replicates (recomputed)
[1] = compound: CC[C@@H]1C(=O)N(C)c2cnc(Nc3ccc(C(=O)NC4CCN(C)CC4)cc3OC)nc2N1C1CCCC1
Procedure, shortened: (§1)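 Values are thermal stability changes relative to control samples and are taken from duplicates. They are stated as log2 fold changes. Before quantification by TMTpro 16plex LC-MS/MS with equalised channel sums, K562 cells at 2×10^6 cells/mL were treated with 10 μM compound for 30 min, heated in aliquots for 3 min across 48°C-58°C, pooled, extracted in PBS with 0.5% NP-40 at 4°C, and centrifuged at 21,000xg for 90 min to give the soluble supernatant.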

[2] = compound: CC[C@@H]1C(=O)N(C)c2cnc(Nc3ccc(C(=O)N[C@H]4CC[C@H](N5CCN(CC6CC6)CC5)CC4)cc3OC)nc2N1C(C)C [volasertib]
Procedure, shortened: as §1

[3] = compound: CC[C@H](C)N1C=C(C2=C(C=C(C=C21)C3=CN=C(C=C3)N4CCNCC4)C(=O)NCC5=C(C=C(NC5=O)C)C)C
Procedure, shortened: as §1

[4] = compound: CC[C@H](C)[C@@H](C(=O)N[C@@H]([C@@H](C)O)C(=O)N[C@@H](CC(C)C)C(=O)[C@]1(CO1)C)NC(=O)[C@H]([C@@H](C)CC)N(C)C(=O)C [epoxomicin]
Procedure, shortened: as §1

[5] = compound: CCn1c(C(=O)N(C2CC2)C2CC2)cc2c3c(ncn3C)c(Nc3cc(C)n(C)n3)nc21
Procedure, shortened: as §1

[6] = compound: CCn1cc(-c2ccnc3[nH]c(-c4cccc(CN(C)C)c4)cc23)c(-c2ccc(NC(=O)N(C)C)cc2)n1
Procedure, shortened: as §1

[7] = compound: CN(C)CC(=O)Nc1ccc2[nH]c(=O)c3ccccc3c2c1
Procedure, shortened: as §1

[8] = compound: CN(CCOC1=CC=C(C=C1)C[C@H]2C(=O)NC(=O)S2)C3=CC=CC=N3 (racemic) [rosiglitazone]
Procedure, shortened: as §1

[9] = compound: CN1C2=C(C3=C1C(=O)N(N=C3)CC4=CC(=CC=C4)N)SC(=C2)S(=O)C
Procedure, shortened: as §1

[10] = compound: CN1CCC(CNc2ccc3ncc(-c4cccc(OC(F)(F)F)c4)n3n2)CC1
Procedure, shortened: as §1

Measured: log2 fold change

PLEKHF2 (UniProt Q9H8W4)
inactive: [1] -0.108 | [2] -0.261 | [3] 0.053 | [4] 0.013 | [5] 0.007 | [6] -0.071 | [7] 0.223 | [8] 0.11 | [9] -0.012 | [10] -0.212

PNPO (UniProt Q9NVS9)
inactive: [1] -0.011 | [2] 0.022 | [3] 0.008 | [4] 0.052 | [5] -0.031 | [6] 0.029 | [7] -0.06 | [8] 0.013 | [9] -0.044 | [10] -0.058

PNISR (UniProt Q8TF01)
inactive: [1] 0.008 | [2] 0.024 | [3] -0.042 | [4] -0.033 | [5] 0.024 | [6] 0.019 | [7] -0.003 | [8] 0 | [9] -0.041 | [10] -0.026

PPIP5K2 (UniProt O43314)
inactive: [1] 0.024 | [2] 0.032 | [3] -0.004 | [4] 0.047 | [5] -0.033 | [6] -0.058 | [7] 0.011 | [8] 0.029 | [9] -0.055 | [10] 0.01

POSTN (UniProt Q15063)
inactive: [1] -0.025 | [2] -0.024 | [3] -0.089 | [4] -0.241 | [5] -0.038 | [6] -0.012 | [7] -0.071 | [8] 0.174 | [9] 0.161 | [10] -0.142

POLDIP3 (UniProt Q9BY77)
inactive: [1] 0.116 | [2] 0.101 | [3] 0.009 | [4] 0.126 | [5] 0.053 | [6] 0.122 | [7] -0.121 | [8] 0.021 | [9] 0.074 | [10] 0.19

POFUT1 (UniProt Q9H488)
inactive: [1] 0.039 | [2] 0.038 | [3] 0 | [4] 0.005 | [5] 0.041 | [6] -0.118 | [7] -0.055 | [8] -0.013 | [9] 0.004 | [10] 0.068

POLR3E (UniProt Q9NVU0)
inactive: [1] -0.013 | [2] -0.502 | [3] 0.089 | [4] -0.082 | [5] 0.042 | [6] -0.021 | [7] 0.07 | [8] 0.139 | [9] 0.084 | [10] 0.023

POLE3 (UniProt Q9NRF9)
inactive: [1] 0.059 | [2] 0.148 | [3] 0.018 | [4] -0.001 | [5] 0.01 | [6] -0.017 | [7] 0.095 | [8] 0.004 | [9] -0.057 | [10] 0.061

PLP2 (UniProt Q04941)
inactive: [1] 0.082 | [2] 0.308 | [3] -0.133 | [4] -0.101 | [5] 0.173 | [6] -0.02 | [7] -0.003 | [8] 0.172 | [9] -0.017 | [10] 0.075

PPAN isoform 3 (UniProt Q9NQ55)
inactive: [1] -0.023 | [2] 0.278 | [3] -0.153 | [4] -0.303 | [5] 0.014 | [6] 0.136 | [7] 0.017 | [8] -0.208 | [9] 0.404 | [10] 0.213

PLRG1 (UniProt O43660)
inactive: [1] 0.032 | [2] 0.036 | [3] 0.017 | [4] -0.153 | [5] 0 | [6] 0.064 | [7] -0.007 | [8] -0.011 | [9] 0.066 | [10] 0.046

PPCS (UniProt Q9HAB8)
inactive: [1] 0.034 | [2] -0.019 | [3] -0.006 | [4] -0.033 | [5] 0.006 | [6] -0.057 | [7] 0 | [8] 0.056 | [9] -0.084 | [10] -0.053

Quoted from the entries so far (two entries):
POLDIP3 (UniProt Q9BY77)
inactive: [1] 0.116 | [2] 0.101 | [3] 0.009 | [4] 0.126 | [5] 0.053 | [6] 0.122 | [7] -0.121 | [8] 0.021 | [9] 0.074 | [10] 0.19

POFUT1 (UniProt Q9H488)
inactive: [1] 0.039 | [2] 0.038 | [3] 0 | [4] 0.005 | [5] 0.041 | [6] -0.118 | [7] -0.055 | [8] -0.013 | [9] 0.004 | [10] 0.068

Later entries.

POLR3A (UniProt O14802)
inactive: [1] -0.069 | [2] -0.342 | [3] 0.318 | [4] 0.014 | [5] -0.012 | [6] -0.015 | [7] 0.045 | [8] 0.114 | [9] 0.054 | [10] -0.016

PPA1 (UniProt Q15181)
inactive: [1] -0.032 | [2] 0.055 | [3] 0.01 | [4] 0.031 | [5] 0.004 | [6] -0.114 | [7] 0.007 | [8] 0.029 | [9] -0.072 | [10] 0.025

PODXL2 (UniProt Q9NZ53)
inactive: [1] 0.032 | [2] -0.185 | [3] 0.008 | [4] -0.021 | [5] 0.031 | [6] 0.144 | [7] -0.04 | [8] -0.017 | [9] 0.042 | [10] -0.122

PPA2 (UniProt Q9H2U2)
inactive: [1] 0.025 | [2] 0.092 | [3] -0.004 | [4] 0.044 | [5] -0.008 | [6] -0.051 | [7] 0.011 | [8] 0.021 | [9] -0.084 | [10] -0.007

POLR2H (UniProt P52434)
inactive: [1] 0.003 | [2] -0.165 | [3] 0.023 | [4] -0.052 | [5] -0.071 | [6] 0.015 | [7] 0.01 | [8] 0.046 | [9] -0.024 | [10] -0.083

POR (UniProt P16435)
inactive: [1] 0.025 | [2] -0.012 | [3] 0.01 | [4] 0.049 | [5] -0.01 | [6] -0.058 | [7] 0.006 | [8] 0.017 | [9] -0.038 | [10] 0.09

PPFIA2 (UniProt O75334)
inactive: [1] 0.162 | [2] -0.324 | [3] 0.005 | [4] -0.064 | [5] -0.044 | [6] 0.104 | [7] -0.134 | [8] -0.029 | [9] 0.18 | [10] -0.028

POP5 (UniProt Q969H6)
inactive: [1] 0.092 | [2] 0.081 | [3] -0.081 | [4] 0 | [5] 0.039 | [6] -0.012 | [7] -0.048 | [8] -0.111 | [9] -0.089 | [10] 0.073

PPM1B (UniProt O75688)
inactive: [1] 0.025 | [2] 0.042 | [3] 0.035 | [4] 0.062 | [5] -0.038 | [6] -0.09 | [7] 0.012 | [8] 0.04 | [9] -0.064 | [10] -0.013

POU2F1 isoform 6 (UniProt P14859)
inactive: [1] -0.037 | [2] -0.115 | [3] 0.077 | [4] 0.072 | [5] -0.037 | [6] -0.147 | [7] -0.018 | [8] 0.106 | [9] -0.024 | [10] -0.158

PPIB (UniProt P23284)
inactive: [1] 0.027 | [2] -0.012 | [3] 0.011 | [4] -0.024 | [5] 0.006 | [6] 0.055 | [7] -0.044 | [8] -0.026 | [9] 0.041 | [10] 0.111

POLR3G (UniProt O15318)
inactive: [1] 0.061 | [2] -0.032 | [3] 0.073 | [4] 0.023 | [5] 0.028 | [6] 0.016 | [7] 0.004 | [8] -0.005 | [9] 0.033 | [10] 0.016

POLR3C (UniProt Q9BUI4)
inactive: [1] 0.04 | [2] -0.046 | [3] -0.02 | [4] 0.02 | [5] 0.002 | [6] -0.04 | [7] -0.031 | [8] 0.007 | [9] -0.081 | [10] 0.009

PMAIP1 (UniProt Q13794)
inactive: [1] -0.042 | [2] -0.042 | [3] -0.003 | [4] 0.317 | [5] 0.181 | [6] 0.072 | [7] -0.035 | [8] -0.027 | [9] 0.036 | [10] 0.095

PPIA (UniProt P62937)
inactive: [1] -0.049 | [2] 0.016 | [3] 0.041 | [4] 0.063 | [5] 0.006 | [6] 0 | [7] -0.006 | [8] 0.027 | [9] -0.055 | [10] -0.001

PNKD isoform 3 (UniProt Q8N490)
inactive: [1] -0.057 | [2] 0.045 | [3] -0.022 | [4] 0.007 | [5] -0.003 | [6] 0.048 | [7] 0.005 | [8] -0.221 | [9] -0.014 | [10] 0.084
